In the supplement of paper PMC10849652:
The list shows a part of the results.

Chains of the proteins cited; added tags and fusions are not shown. Lines headed by an entry give the natural chain unless they say otherwise; changes in a name come on top.
UniProt Q9Y5Y5: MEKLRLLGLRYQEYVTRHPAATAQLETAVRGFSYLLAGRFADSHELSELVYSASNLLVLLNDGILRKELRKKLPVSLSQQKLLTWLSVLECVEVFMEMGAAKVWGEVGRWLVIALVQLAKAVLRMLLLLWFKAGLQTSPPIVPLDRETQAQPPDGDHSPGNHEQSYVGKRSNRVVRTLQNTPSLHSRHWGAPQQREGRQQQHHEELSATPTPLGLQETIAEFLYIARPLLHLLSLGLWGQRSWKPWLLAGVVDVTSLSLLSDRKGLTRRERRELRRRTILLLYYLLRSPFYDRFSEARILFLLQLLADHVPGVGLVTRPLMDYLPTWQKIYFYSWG
UniProt O00330, whole entry, looked up: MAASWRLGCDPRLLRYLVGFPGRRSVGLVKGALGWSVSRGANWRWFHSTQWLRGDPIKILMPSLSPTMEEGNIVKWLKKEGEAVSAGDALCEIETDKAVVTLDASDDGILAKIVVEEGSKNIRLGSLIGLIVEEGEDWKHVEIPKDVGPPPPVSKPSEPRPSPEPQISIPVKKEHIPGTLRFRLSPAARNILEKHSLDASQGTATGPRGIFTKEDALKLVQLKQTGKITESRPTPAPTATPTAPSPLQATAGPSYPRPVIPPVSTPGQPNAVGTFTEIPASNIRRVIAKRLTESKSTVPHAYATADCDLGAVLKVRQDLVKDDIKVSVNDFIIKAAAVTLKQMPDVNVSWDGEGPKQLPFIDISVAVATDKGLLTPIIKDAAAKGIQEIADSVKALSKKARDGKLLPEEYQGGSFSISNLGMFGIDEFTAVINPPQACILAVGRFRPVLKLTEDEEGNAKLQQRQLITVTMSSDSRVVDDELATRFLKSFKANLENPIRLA
UniProt Q15154: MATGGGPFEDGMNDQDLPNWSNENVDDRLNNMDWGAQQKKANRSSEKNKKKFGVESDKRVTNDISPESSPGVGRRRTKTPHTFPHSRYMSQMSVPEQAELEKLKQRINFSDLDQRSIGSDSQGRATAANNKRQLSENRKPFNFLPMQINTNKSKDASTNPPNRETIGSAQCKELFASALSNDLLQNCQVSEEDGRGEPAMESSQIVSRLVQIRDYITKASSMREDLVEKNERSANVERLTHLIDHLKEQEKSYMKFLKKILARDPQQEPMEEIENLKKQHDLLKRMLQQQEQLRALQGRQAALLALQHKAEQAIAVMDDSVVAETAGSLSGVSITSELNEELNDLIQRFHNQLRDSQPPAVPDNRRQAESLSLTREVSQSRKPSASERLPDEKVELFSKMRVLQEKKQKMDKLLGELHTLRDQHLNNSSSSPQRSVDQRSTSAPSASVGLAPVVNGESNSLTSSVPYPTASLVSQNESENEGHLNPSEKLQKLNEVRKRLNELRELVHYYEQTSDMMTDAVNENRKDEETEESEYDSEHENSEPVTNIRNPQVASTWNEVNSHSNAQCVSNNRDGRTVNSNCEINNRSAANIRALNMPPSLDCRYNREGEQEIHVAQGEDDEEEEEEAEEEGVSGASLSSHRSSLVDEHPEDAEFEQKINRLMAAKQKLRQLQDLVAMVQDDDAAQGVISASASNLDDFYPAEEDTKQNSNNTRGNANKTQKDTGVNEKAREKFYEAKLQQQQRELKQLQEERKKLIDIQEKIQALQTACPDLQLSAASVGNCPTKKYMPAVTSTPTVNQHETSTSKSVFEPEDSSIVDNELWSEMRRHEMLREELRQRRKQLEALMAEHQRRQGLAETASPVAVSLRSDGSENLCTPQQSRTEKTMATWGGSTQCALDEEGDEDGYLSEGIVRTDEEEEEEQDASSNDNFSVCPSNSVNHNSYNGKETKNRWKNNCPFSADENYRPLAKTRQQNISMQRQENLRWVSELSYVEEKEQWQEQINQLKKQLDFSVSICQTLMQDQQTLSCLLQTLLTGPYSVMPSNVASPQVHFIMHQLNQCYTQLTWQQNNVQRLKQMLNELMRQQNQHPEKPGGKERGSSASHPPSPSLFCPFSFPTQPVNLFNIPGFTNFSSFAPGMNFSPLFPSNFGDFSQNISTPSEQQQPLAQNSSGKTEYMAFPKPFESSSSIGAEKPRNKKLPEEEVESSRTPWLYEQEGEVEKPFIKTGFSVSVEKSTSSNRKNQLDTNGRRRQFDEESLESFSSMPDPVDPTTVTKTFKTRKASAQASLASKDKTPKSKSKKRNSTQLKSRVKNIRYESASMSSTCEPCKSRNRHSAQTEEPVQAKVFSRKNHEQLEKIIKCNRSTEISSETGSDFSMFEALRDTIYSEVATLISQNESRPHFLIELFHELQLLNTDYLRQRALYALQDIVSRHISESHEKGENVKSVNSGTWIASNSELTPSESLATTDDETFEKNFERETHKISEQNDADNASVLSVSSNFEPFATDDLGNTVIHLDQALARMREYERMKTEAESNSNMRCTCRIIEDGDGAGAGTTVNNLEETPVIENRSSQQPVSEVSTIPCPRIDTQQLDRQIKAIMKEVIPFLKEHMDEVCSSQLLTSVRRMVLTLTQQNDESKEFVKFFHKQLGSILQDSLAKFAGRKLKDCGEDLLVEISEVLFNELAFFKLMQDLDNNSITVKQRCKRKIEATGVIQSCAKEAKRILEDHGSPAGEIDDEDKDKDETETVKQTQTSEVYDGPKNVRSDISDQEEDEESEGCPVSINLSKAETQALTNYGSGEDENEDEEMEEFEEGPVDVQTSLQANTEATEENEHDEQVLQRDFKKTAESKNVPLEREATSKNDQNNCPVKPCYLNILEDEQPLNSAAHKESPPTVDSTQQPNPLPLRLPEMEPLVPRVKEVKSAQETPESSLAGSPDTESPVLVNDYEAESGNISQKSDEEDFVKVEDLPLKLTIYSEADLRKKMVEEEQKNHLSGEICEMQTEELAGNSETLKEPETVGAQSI
UniProt Q9UGN5: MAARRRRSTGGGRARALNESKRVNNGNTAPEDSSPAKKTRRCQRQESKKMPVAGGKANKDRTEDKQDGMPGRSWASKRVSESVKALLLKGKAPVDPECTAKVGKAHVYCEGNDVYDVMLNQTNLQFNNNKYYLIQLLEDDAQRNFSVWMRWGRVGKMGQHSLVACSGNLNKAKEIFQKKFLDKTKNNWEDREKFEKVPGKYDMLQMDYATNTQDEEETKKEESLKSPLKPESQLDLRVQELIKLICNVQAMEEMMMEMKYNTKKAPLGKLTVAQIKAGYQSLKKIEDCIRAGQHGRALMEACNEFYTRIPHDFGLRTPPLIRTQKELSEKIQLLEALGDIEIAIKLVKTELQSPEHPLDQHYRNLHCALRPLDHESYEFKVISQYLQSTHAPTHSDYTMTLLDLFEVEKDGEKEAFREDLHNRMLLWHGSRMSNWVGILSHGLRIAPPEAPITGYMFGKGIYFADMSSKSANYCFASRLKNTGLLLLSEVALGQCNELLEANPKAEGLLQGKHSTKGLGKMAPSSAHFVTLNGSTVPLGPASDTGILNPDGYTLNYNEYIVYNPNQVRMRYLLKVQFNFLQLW
UniProt Q9NTI5: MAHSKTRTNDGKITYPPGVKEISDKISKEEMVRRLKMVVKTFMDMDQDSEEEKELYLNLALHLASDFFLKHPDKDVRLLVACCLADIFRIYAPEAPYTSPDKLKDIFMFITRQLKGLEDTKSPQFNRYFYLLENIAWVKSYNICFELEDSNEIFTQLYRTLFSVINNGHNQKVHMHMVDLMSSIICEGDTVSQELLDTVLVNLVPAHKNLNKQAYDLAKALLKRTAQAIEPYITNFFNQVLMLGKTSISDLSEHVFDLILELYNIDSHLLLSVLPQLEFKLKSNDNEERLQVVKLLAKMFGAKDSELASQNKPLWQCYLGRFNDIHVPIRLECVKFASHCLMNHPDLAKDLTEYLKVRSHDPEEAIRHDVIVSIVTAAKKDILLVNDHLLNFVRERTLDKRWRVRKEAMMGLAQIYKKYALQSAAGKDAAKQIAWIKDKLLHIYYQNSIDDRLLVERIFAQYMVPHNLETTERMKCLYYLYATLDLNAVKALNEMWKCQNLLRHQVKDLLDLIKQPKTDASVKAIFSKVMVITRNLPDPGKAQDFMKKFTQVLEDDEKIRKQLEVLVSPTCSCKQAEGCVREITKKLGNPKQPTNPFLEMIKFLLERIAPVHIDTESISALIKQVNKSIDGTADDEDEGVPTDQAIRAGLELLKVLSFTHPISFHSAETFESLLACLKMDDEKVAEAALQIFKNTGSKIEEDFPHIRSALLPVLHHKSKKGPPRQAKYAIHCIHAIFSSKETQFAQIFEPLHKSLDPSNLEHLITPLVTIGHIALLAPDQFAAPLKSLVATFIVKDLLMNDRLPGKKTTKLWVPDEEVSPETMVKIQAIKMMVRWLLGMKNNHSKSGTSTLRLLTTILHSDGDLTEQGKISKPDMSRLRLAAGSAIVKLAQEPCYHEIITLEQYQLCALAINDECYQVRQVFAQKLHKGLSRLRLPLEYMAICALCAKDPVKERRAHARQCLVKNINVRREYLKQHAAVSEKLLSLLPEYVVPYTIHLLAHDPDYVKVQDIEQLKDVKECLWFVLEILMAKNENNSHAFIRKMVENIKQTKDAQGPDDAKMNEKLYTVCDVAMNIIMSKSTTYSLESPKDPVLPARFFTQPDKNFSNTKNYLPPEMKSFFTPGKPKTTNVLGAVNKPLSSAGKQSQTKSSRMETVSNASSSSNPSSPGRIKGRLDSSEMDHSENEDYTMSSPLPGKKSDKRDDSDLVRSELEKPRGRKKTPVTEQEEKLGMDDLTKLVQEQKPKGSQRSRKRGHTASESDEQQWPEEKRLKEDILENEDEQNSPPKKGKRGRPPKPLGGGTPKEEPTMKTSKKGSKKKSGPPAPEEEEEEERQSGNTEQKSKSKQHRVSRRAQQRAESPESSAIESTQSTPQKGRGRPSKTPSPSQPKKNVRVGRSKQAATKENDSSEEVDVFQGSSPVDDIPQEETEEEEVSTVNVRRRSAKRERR
UniProt Q9UHV9, whole entry, looked up: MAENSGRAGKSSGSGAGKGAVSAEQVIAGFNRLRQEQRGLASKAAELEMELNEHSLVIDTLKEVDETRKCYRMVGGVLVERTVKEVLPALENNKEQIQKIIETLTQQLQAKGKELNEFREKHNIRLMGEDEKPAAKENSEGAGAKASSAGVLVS
UniProt Q9Y5B6: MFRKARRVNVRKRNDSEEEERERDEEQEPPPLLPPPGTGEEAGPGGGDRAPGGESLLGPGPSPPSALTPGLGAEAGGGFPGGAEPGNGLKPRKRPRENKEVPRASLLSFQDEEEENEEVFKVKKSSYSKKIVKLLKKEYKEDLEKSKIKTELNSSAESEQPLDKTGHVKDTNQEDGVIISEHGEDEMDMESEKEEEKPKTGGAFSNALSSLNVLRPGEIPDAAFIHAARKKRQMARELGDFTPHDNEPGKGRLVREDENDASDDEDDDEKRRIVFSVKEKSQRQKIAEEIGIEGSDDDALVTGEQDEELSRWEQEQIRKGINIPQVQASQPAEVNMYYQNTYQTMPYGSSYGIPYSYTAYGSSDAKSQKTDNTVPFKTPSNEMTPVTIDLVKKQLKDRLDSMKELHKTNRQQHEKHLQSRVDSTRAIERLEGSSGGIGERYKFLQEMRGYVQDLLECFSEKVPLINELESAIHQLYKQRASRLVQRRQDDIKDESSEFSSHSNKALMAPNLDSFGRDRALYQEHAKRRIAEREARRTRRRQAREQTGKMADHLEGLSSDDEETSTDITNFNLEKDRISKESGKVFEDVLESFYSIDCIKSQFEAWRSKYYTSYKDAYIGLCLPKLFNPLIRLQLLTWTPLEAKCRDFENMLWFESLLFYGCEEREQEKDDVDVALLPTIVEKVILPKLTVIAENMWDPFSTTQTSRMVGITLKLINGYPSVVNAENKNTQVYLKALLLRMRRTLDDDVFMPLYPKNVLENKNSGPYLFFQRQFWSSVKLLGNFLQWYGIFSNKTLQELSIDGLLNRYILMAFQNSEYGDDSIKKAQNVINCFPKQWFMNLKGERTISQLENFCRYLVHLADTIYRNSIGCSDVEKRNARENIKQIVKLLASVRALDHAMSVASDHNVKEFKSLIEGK
UniProt Q8N0Y7: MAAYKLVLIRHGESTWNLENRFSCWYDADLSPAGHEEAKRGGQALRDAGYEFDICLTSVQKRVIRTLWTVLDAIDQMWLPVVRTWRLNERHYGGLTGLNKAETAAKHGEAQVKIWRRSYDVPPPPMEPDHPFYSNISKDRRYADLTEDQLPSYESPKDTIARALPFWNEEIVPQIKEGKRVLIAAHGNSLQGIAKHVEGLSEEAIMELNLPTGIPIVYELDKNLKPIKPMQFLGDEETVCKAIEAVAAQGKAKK
UniProt Q9BVG4: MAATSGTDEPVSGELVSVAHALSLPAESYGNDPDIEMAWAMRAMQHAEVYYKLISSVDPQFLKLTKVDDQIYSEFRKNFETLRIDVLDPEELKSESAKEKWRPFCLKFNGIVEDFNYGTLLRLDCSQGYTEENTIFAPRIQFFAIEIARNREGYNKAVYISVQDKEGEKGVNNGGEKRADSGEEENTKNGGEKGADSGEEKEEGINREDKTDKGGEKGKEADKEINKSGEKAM

What was measured:
Experiment in all cases: log2 fold change, soluble protein after heating vs DMSO (PISA); higher = thermal stabilisation; K562 lysate, 10 uM; active = over 0.2 and 3.5 SD of the protein, either way, in both replicates (recomputed)
lapatinib = compound: CS(=O)(=O)CCNCc1ccc(-c2ccc3ncnc(Nc4ccc(OCc5cccc(F)c5)c(Cl)c4)c3c2)o1 [lapatinib]
In short: (§1)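 The values are log-two fold changes in thermal stability compared with solvent controls and come from duplicates. They were obtained by TMTpro 16plex LC-MS/MS, with channel sums equalised, on the supernatant after 21,000xg for 90 min. That supernatant came from crude K562 extract at 1 mg/mL protein treated with 10 μM compound for 30 min, heated for 3 min across 48°C-58°C, pooled and brought to 0.5% NP-40 at 4°C.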

pictilisib = compound: CS(=O)(=O)N1CCN(Cc2cc3nc(-c4cccc5[nH]ncc45)nc(N4CCOCC4)c3s2)CC1 [pictilisib]
In short: as §1

crizotinib = compound: C[C@@H](Oc1cc(-c2cnn(C3CCNCC3)c2)cnc1N)c1c(Cl)ccc(F)c1Cl [crizotinib]
In short: as §1

[1] = compound: C[C@H](C1=CC=C(C=C1)C(=O)NC2=C3C=CNC3=NC=C2)N
In short: as §1

duvelisib = compound: C[C@H](Nc1ncnc2nc[nH]c12)c1cc2cccc(Cl)c2c(=O)n1-c1ccccc1 [duvelisib]
In short: as §1

gandotinib = compound: Cc1cc(Nc2cc(CN3CCOCC3)c3nc(C)c(Cc4ccc(Cl)cc4F)n3n2)n[nH]1 [gandotinib]
In short: as §1

tozasertib = compound: Cc1cc(Nc2cc(N3CCN(C)CC3)nc(Sc3ccc(NC(=O)C4CC4)cc3)n2)n[nH]1 [tozasertib]
In short: as §1

doramapimod = compound: Cc1ccc(-n2nc(C(C)(C)C)cc2NC(=O)Nc2ccc(OCCN3CCOCC3)c3ccccc23)cc1 [doramapimod]
In short: as §1

bafetinib = compound: Cc1ccc(NC(=O)c2ccc(CN3CC[C@H](N(C)C)C3)c(C(F)(F)F)c2)cc1Nc1nccc(-c2cncnc2)n1 [bafetinib]
In short: as §1

[2] = compound: Cc1cccc(CC(=O)N2CCc3c2ccc(-c2cn(C)c4ncnc(N)c24)c3F)n1
In short: as §1

nilotinib = compound: Cc1cn(-c2cc(NC(=O)c3ccc(C)c(Nc4nccc(-c5cccnc5)n4)c3)cc(C(F)(F)F)c2)cn1 [nilotinib]
In short: as §1

[3] = compound: Cc1nc(Nc2n[nH]c3c2CN(C(=O)N[C@H](CN(C)C)c2ccccc2)C3(C)C)c2sccc2n1
In short: as §1

dasatinib = compound: Cc1nc(Nc2ncc(C(=O)Nc3c(C)cccc3Cl)s2)cc(N2CCN(CCO)CC2)n1 [dasatinib]
In short: as §1

[4] = compound: Cc1ncc(-c2ccnc(Nc3ccc(S(C)(=O)=O)cc3)n2)n1C(C)C
In short: as §1

[5] = compound: Cn1cc(-c2ccc3c(c2)CCN3C(=O)Cc2cccc(C(F)(F)F)c2)c2c(N)ncnc21
In short: as §1

quisinostat = compound: Cn1cc(CNCC2CCN(c3ncc(C(=O)NO)cn3)CC2)c2ccccc21 [quisinostat]
In short: as §1

tipifarnib = compound: Cn1cncc1[C@@](N)(c1ccc(Cl)cc1)c1ccc2c(c1)c(-c1cccc(Cl)c1)cc(=O)n2C [tipifarnib]
In short: as §1

[6] = compound: NC(=O)Nc1cc(-c2cccc(F)c2)sc1C(=O)N[C@H]1CCCNC1
In short: as §1

[7] = compound: NC(=O)c1cnc(N[C@@H]2CCCC[C@@H]2N)nc1Nc1cccc(-n2nccn2)c1
In short: as §1

[8] = compound: NC1(c2ccc(-c3nc4ccn5c(=O)[nH]nc5c4cc3-c3ccccc3)cc2)CCC1
In short: as §1

Measured: log2 fold change

PEX16 isoform 2 (UniProt Q9Y5Y5)
inactive: lapatinib 0.006 | pictilisib -0.109 | crizotinib -0.056 | [1] -0.212 | duvelisib 0.064 | gandotinib 0.152 | tozasertib 0.048 | doramapimod 0.02 | bafetinib -0.072 | [2] 0.067 | nilotinib -0.032 | [3] 0.084 | dasatinib -0.083 | [4] 0.024 | [5] 0.025 | quisinostat -0.014 | tipifarnib -0.092 | [6] 0.117 | [7] 0.022 | [8] -0.117

PDIA3 (UniProt P30101)
inactive: lapatinib -0.014 | pictilisib 0.005 | crizotinib 0.063 | [1] 0.044 | duvelisib -0.003 | gandotinib -0.054 | tozasertib -0.008 | doramapimod -0.019 | bafetinib 0.006 | [2] -0.08 | nilotinib 0.019 | [3] 0.001 | dasatinib -0.03 | [4] -0.01 | [5] -0.011 | quisinostat 0.097 | tipifarnib 0.008 | [6] -0.01 | [7] -0.013 | [8] 0.011

PBRM1 (UniProt Q86U86)
inactive: lapatinib 0.014 | pictilisib 0.02 | crizotinib -0.027 | [1] 0.12 | duvelisib 0.046 | gandotinib -0.083 | tozasertib -0.061 | doramapimod 0.138 | bafetinib -0.054 | [2] -0.02 | nilotinib 0.068 | [3] 0.082 | dasatinib -0.15 | [4] -0.115 | [5] 0.159 | quisinostat 0.009 | tipifarnib -0.012 | [6] 0.016 | [7] 0.047 | [8] -0.309

PASK (UniProt Q96RG2)
inactive: lapatinib 0.003 | pictilisib -0.011 | crizotinib -0.092 | [1] 0.093 | duvelisib -0.014 | gandotinib -0.063 | tozasertib -0.031 | doramapimod 0.027 | bafetinib -0.035 | [2] -0.038 | nilotinib 0.046 | [3] 0.002 | dasatinib -0.023 | [4] 0.009 | [5] 0.005 | quisinostat -0.065 | tipifarnib -0.037 | [6] 0.012 | [7] 0.006 | [8] -0.021

PDHX (UniProt O00330)
inactive: lapatinib -0.034 | pictilisib -0.026 | crizotinib 0.024 | [1] 0 | duvelisib 0 | gandotinib -0.047 | tozasertib -0.01 | doramapimod -0.012 | bafetinib -0.001 | [2] -0.046 | nilotinib -0.022 | [3] 0.001 | dasatinib -0.033 | [4] 0.045 | [5] 0.001 | quisinostat -0.005 | tipifarnib 0.003 | [6] -0.001 | [7] -0.003 | [8] -0.01

PCM1 (UniProt Q15154)
inactive: lapatinib -0.014 | pictilisib -0.04 | crizotinib -0.02 | [1] 0.015 | duvelisib -0.006 | gandotinib -0.028 | tozasertib 0 | doramapimod -0.008 | bafetinib -0.033 | [2] 0.013 | nilotinib -0.024 | [3] -0.012 | dasatinib -0.012 | [4] 0.019 | [5] 0.036 | quisinostat -0.077 | tipifarnib 0.008 | [6] 0.022 | [7] 0.016 | [8] 0.041

PCBP2 isoform 3 (UniProt Q15366)
inactive: lapatinib -0.013 | pictilisib -0.008 | crizotinib 0.079 | [1] -0.005 | duvelisib -0.015 | gandotinib -0.023 | tozasertib 0.014 | doramapimod 0.012 | bafetinib 0.002 | [2] -0.042 | nilotinib 0.019 | [3] -0.012 | dasatinib -0.019 | [4] 0.015 | [5] 0.039 | quisinostat 0.044 | tipifarnib 0.005 | [6] 0 | [7] 0.005 | [8] 0.072

Random excerpt: 2 entries already listed, in no set order.
PASK (UniProt Q96RG2)
inactive: lapatinib 0.003 | pictilisib -0.011 | crizotinib -0.092 | [1] 0.093 | duvelisib -0.014 | gandotinib -0.063 | tozasertib -0.031 | doramapimod 0.027 | bafetinib -0.035 | [2] -0.038 | nilotinib 0.046 | [3] 0.002 | dasatinib -0.023 | [4] 0.009 | [5] 0.005 | quisinostat -0.065 | tipifarnib -0.037 | [6] 0.012 | [7] 0.006 | [8] -0.021

PEX16 isoform 2 (UniProt Q9Y5Y5)
inactive: lapatinib 0.006 | pictilisib -0.109 | crizotinib -0.056 | [1] -0.212 | duvelisib 0.064 | gandotinib 0.152 | tozasertib 0.048 | doramapimod 0.02 | bafetinib -0.072 | [2] 0.067 | nilotinib -0.032 | [3] 0.084 | dasatinib -0.083 | [4] 0.024 | [5] 0.025 | quisinostat -0.014 | tipifarnib -0.092 | [6] 0.117 | [7] 0.022 | [8] -0.117

(continued)

PARP2 (UniProt Q9UGN5)
inactive: lapatinib -0.063 | pictilisib -0.006 | crizotinib -0.003 | [1] -0.047 | duvelisib 0.091 | gandotinib -0.059 | tozasertib 0.026 | doramapimod 0.1 | bafetinib -0.054 | [2] -0.033 | nilotinib -0.038 | [3] -0.026 | dasatinib -0.026 | [4] 0.015 | [5] 0.03 | quisinostat -0.07 | tipifarnib 0.031 | [6] -0.012 | [7] 0.046 | [8] 0.036

PDS5B (UniProt Q9NTI5)
inactive: lapatinib -0.02 | pictilisib 0.007 | crizotinib -0.011 | [1] -0.04 | duvelisib -0.003 | gandotinib -0.119 | tozasertib -0.003 | doramapimod -0.011 | bafetinib -0.076 | [2] 0.033 | nilotinib -0.01 | [3] 0.018 | dasatinib -0.033 | [4] 0.015 | [5] 0.019 | quisinostat 0.033 | tipifarnib 0.009 | [6] 0.051 | [7] -0.002 | [8] 0.008

PFDN2 (UniProt Q9UHV9)
inactive: lapatinib -0.001 | pictilisib -0.017 | crizotinib 0.054 | duvelisib 0 | gandotinib -0.1 | tozasertib 0.053 | doramapimod 0.005 | bafetinib -0.064 | [2] -0.13 | nilotinib -0.011 | [3] 0.013 | dasatinib 0.008 | [4] -0.045 | [5] -0.019 | quisinostat 0.037 | tipifarnib 0 | [6] -0.018 | [7] -0.028 | [8] 0.053
active: [1] 0.365

PAXBP1 (UniProt Q9Y5B6)
inactive: lapatinib 0.002 | pictilisib -0.077 | crizotinib -0.027 | [1] -0.037 | duvelisib -0.008 | gandotinib -0.029 | tozasertib 0.012 | doramapimod 0.038 | bafetinib -0.024 | [2] 0.002 | nilotinib -0.014 | [3] 0.012 | dasatinib -0.046 | [4] 0.011 | [5] 0.024 | quisinostat -0.041 | tipifarnib -0.008 | [6] 0.031 | [7] 0.023 | [8] -0.006

PGAM4 (UniProt Q8N0Y7)
inactive: lapatinib -0.004 | pictilisib 0.034 | crizotinib 0.003 | [1] -0.002 | duvelisib 0.001 | gandotinib 0.008 | tozasertib -0.003 | doramapimod -0.039 | bafetinib 0.023 | [2] -0.028 | nilotinib -0.001 | [3] 0.017 | dasatinib 0.036 | [4] -0.003 | [5] -0.062 | quisinostat -0.022 | tipifarnib 0.039 | [6] -0.003 | [7] -0.02 | [8] -0.009

PBDC1 (UniProt Q9BVG4)
inactive: lapatinib 0.007 | pictilisib -0.026 | crizotinib 0.045 | [1] 0.002 | duvelisib 0.01 | gandotinib -0.011 | tozasertib 0.015 | doramapimod 0 | bafetinib -0.035 | [2] -0.045 | nilotinib 0.072 | [3] 0.008 | dasatinib 0.021 | [4] 0.019 | [5] 0 | quisinostat 0.043 | tipifarnib 0.023 | [6] 0.013 | [7] 0.001 | [8] 0

PEX13 (UniProt Q92968)
inactive: lapatinib 0.105 | pictilisib -0.114 | crizotinib -0.091 | [1] -0.076 | duvelisib -0.075 | gandotinib 0 | tozasertib 0.008 | doramapimod 0.007 | bafetinib -0.151 | [2] 0.038 | nilotinib -0.042 | [3] 0.056 | dasatinib -0.141 | [4] 0.078 | [5] -0.131 | quisinostat 0.018 | tipifarnib -0.011 | [6] 0.018 | [7] -0.009 | [8] -0.105

PDXDC1 (UniProt Q6P996)
inactive: lapatinib -0.025 | pictilisib -0.019 | crizotinib -0.056 | [1] -0.011 | duvelisib 0.019 | gandotinib 0 | tozasertib 0.01 | doramapimod 0.007 | bafetinib -0.128 | [2] 0.062 | nilotinib 0.058 | [3] 0.064 | dasatinib -0.098 | [4] -0.024 | [5] 0.022 | quisinostat -0.035 | tipifarnib -0.074 | [6] 0.019 | [7] 0.042 | [8] 0.012

PCLO (UniProt Q9Y6V0)
inactive: lapatinib 0.001 | pictilisib 0.034 | crizotinib -0.087 | [1] -0.298 | duvelisib 0.073 | gandotinib 0.406 | tozasertib -0.054 | doramapimod -0.044 | bafetinib 0 | [2] 0.365 | nilotinib 0.041 | [3] -0.097 | dasatinib 0.068 | [4] 0.106 | [5] -0.023 | quisinostat -0.157 | tipifarnib 0.019 | [6] 0.177 | [7] 0.003 | [8] -0.093
